Laboratory results from publication PMC7335806.
These are yes or no findings as the source states them, for the method shown. Binding seen in cells or lysates may run through a third protein. Some results given as binding are weak or reduced against the parent protein; the word gives no strength. Where a sequence is shown, tags or fusion partners need not be part of it.

Protein sequences, listed by entry. Tags and fused reporters are not part of them. Lines headed by an entry give the natural chain unless they say otherwise; changes in a name come on top. Chains listed by the source or under a name are the forms on record and can include a tag or linker.
GST-tagged human Sar1A (H79G) (Q9NR31, form named): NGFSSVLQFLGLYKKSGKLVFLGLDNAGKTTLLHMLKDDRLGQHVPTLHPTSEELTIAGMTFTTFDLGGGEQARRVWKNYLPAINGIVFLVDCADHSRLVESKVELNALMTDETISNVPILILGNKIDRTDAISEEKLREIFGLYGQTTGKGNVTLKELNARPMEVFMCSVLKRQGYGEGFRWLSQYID

Target: GST-tagged human Sar1A (H79G) (human) (UniProt Q9NR31)
Assay: pull-down; around 5 μg GST-Sar1A (H79G) on 10 μl GSH beads, loaded with GTPγS; incubated with 200 μl of 0.5 mg/ml HEK293T cell lysate in HKT buffer (100 mM KCl, 20 mM Hepes pH 7.2, 0.5% Triton X-100), 4 °C overnight; immunoblotting; only the target purified

B1: Wild-type HA-tagged mouse Fzd6 (receptor, UniProt Q61089 19-709)
chain: HSLFTCEPITVPRCMKMTYNMTFFPNLMGHYDQGIAAVEMGHFLHLANLECSPNIEMFLCQAFIPTCTEQIHVVLPCRKLCEKIVSDCKKLMDTFGIRWPEELECNRLPHCDDTVPVTSHPHTELSGPQKKSDQVPRDIGFWCPKHLRTSGDQGYRFLGIEQCAPPCPNMYFKSDELDFAKSFIGIVSIFCLCATLFTFLTFLIDVRRFRYPERPIIYYSVCYSIVSLMYFVGFLLGNSTACNKADEKLELGDTVVLGSKNKACSVVFMFLYFFTMAGTVWWVILTITWFLAAGRKWSCEAIEQKAVWFHAVAWGAPGFLTVMLLAMNKVEGDNISGVCFVGLYDLDASRYFVLLPLCLCVFVGLSLLLAGIISLNHVRQVIQHDGRNQEKLKKFMIRIGVFSGLYLVPLVTLLGCYVYELVNRITWEMTWFSDHCHQYRIPCPYQANPKARPELALFMIKYLMTLIVGISAVFWVGSKKTCTEWAGFFKRNRKRDPISESRRVLQESCEFFLKHNSKVKHKKKHGAPGPHRLKVISKSMGTSTGATTNHGTSAMAIADHDYLGQETSTEVHTSPEASVKEGRADRANTPSAKDRDCGESAGPSSKLSGNRNGRESRAGGLKERSNGSEGAPSEGRVSPKSSVPETGLIDCSTSQAASSPEPTSLKGSTSLPVHSASRARKEQGAGSHSDA
binding: binds
